Test results reported in patent US9409879B2, “Total synthesis of redox-active 1.4-naphthoquinones and their metabolites and their therapeutic use as antimalarial and schistomicidal agents” (CENTRE NATIONAL DE LA RECHERCHE SCIENTIFIQUE, priority 2011, dated 2016).

Tested on: P. falciparum strain Dd2
Test: 3H-hypoxanthine incorporation antiproliferation assay, P. falciparum Dd2
Assay type: cell-based
Conditions: Plasmodium falciparum
Method: Infected erythrocytes in ring stage (0.5% parasitemia, 2.5% hematocrit) in 96-well plates were exposed to the compounds for 48 h and then to radioactive hypoxanthine for 24 h. The amount of radioactivity in precipitable material served as an index of cell proliferation.

**Q.** CCN(CC)CCCC(C)Nc1ccnc2cc(Cl)ccc12 (stereo not shown) [Chloroquine, reference compound] was tested. Which IC50 did it give?
**A.** 110 nM
